The test has as its target T1, Peroxisome proliferator-activated receptor gamma (Homo sapiens, UniProt P37231).
T1 sequence (P37231 whole entry): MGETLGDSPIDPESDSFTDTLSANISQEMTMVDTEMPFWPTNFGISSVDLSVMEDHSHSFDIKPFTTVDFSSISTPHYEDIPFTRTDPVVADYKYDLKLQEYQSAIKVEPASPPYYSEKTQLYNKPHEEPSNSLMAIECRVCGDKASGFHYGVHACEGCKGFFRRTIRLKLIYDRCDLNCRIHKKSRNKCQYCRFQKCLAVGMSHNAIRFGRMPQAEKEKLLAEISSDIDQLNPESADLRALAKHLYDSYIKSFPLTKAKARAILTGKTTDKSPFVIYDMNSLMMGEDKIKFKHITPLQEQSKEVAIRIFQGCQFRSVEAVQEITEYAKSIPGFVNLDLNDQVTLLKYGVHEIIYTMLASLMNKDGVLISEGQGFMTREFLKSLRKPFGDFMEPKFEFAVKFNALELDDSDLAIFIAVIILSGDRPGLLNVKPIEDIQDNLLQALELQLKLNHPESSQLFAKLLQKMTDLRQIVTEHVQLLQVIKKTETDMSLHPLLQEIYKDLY

In general, IC50 refers to the point on the concentration scale where inhibition reaches its midpoint. Molecule `O=C(O)COc1ccc(SCc2ccc(OCc3ccc(F)cc3C(F)(F)F)cc2)c2c1CCC2` showed an IC50 of less than 11.1 µM.
`O=C(O)COc1ccc(SCc2ccc(OCc3ccc(OC(F)(F)F)cc3)cc2)c2c1CCC2`: the IC50 is less than 11.1 µM.
In the case of `O=C(O)COc1ccc(SCc2ccccc2OCc2ccc(C(F)(F)F)cc2)c2c1CCC2` it was greater than 10 µM.
On to `O=C(O)COc1ccc(SCc2ccc(OCc3ccc(C(F)(F)F)cc3)cc2)c2c1CCC2`, for which the IC50 was greater than 10 µM.
As to `O=C(O)COc1ccc(SCc2cc(F)ccc2OCc2ccc(C(F)(F)F)cc2)c2c1CCC2`, the IC50 is greater than 10 µM.
Consider `O=C(O)COc1ccc(SCc2ccc(OCc3ccccc3)cc2)c2c1CCC2`, for which the IC50 was 7.57 µM.
The molecule `Cc1cc(SCc2ccc(OCc3ccc(C(F)(F)F)cc3)cc2)ccc1OCC(=O)O` had an IC50 greater than 11 µM.

Source of the values: ChEMBL document CHEMBL1148881 (Bioorg Med Chem Lett, 2007).
